Data source: PubChem BioAssay AID1671195 (Yale University, 2021)

Purpose: 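Genes whose knockdown alters LDL uptake in liver cancer cells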 (primary screen)
Cell system: human Huh7 hepatoma cells
Reagents: siRNA pool against human genes, 18 nM
Time to read-out: about 2 to 2.5 days of knockdown, then 8 h LDL uptake
Treatment: DiI-labelled LDL at 30 µg/ml for 8 h, in lipoprotein-deficient serum medium
Measured: 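Fluorescent LDL signal imaged in cells, scaled to the plate median, robust z-score for each replicate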
Reading the numbers: robust z-score: higher = more LDL uptake after knockdown
Active means: 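a gene counts as active if at least two replicate z-scores exceed ±2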
The deposit covers about 22,000 reagents; shown is a random part of them. Of all reagents, about 1,510 (6.9%) were called active. 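Active includes knockdowns raising or lowering LDL uptake; positive z-scores mean more uptake, negative mean less.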 Unmarked entries are inactive.

no.	gene	robust z-score, replicate 1	robust z-score, replicate 2	robust z-score, replicate 3
1	ZNF207	2.42	-0.248	0.929
2	TAFAZZIN	1.3	0.877	1.47
3	ZNF841	0.96	1.01	1.48
4	YWHAZ	1.51	0.448	1.84
5	AK2	1.16	0.445	0.168
6	RSRP1	0.168	0.441	-0.0378
7	DLL3	-0.212	-0.894	0.713
8	SDC3	-1.17	-1.59	-1.51
9	MAP3K6	-0.533	-0.629	-0.829
10	RPL10L	0.029	0.45	-0.224
11	BAX	0.115	0.175	-0.768
12	LOC442050 (retired record)	0.308	-0.0301	-0.288
13	KIF11	0.217	0.072	0.626
14	IRAG2	0.296	-0.167	-0.943
15	CEP55	-0.0196	-0.752	0.149
16	LOC440378 (retired record)	-0.142	-0.484	-0.792
17	PRB4	1.43	0.729	1.54
18	LOC388438 (retired record)	-0.334	-0.515	-0.47
19	LYPD2	-1.1	-0.212	-0.725
20	LOC155060	-0.973	0.717	-1.04
21	OR5T1	0.897	0.663	0.793
22	TPTEP2	0.589	0.0801	0.572
23	PSMC3	-0.923	-0.971	-1.55
24	GAREM2	-0.664	-0.962	-1.22
25	TXNDC2	-0.734	-0.98	-0.912
26	HOXA6	0.271	1.47	1.57
27	TMEM41B	1.83	1.8	2.27
28	FRMD4B	0.895	3.3	0.981
29	SPTSSA	2.13 (active)	2.02	1.74
30	AFG2B	-0.75	0.909	0.72
31	LINC00614	0.325	0.238	0.65
32	RAI1	0.97	-0.0774	1.79
33	ELOF1	-0.517	-0.0554	-0.206
34	ISLR2	1.17	1.69	1.85
35	ADCY6	-1.82	-1.31	-1.82
36	GGCX	-1.17	0.512	-0.499
37	STK24	-0.149	-0.96	-0.86
38	RAC3	0.0573	-0.111	-0.845
39	DEFB4A	-1.49	-1.07	-2.46
40	MTAP	-0.0208	-0.487	-0.369
41	NFKBIZ	-0.846	-0.94	-0.761
42	FHDC1	4.14 (active)	2.51	3.99
43	FBN2	1.48	-0.283	0.239
44	OSGIN1	-0.836	-0.831	-1.1
45	HAND1	2.2	1.41	1.74
46	ETV4	0.345	0.364	0.481
47	MYO10	0.303	-0.241	-0.226
48	LOC440715 (retired record)	-1.02	-0.479	-0.926
49	MAN1A2	0.203	-0.624	-1.04
50	LOC391783 (retired record)	0.431	1.17	1.56
51	DMRT3	0.442	0.553	0.333

Taken from above:
Under “robust z-score, replicate 1”, LOC440715 (retired record) reads -1.02
RAI1, robust z-score, replicate 3 → 1.79
LOC388438 (retired record), robust z-score, replicate 1 = -0.334
SPTSSA, robust z-score, replicate 2 = 2.02 (active)
TPTEP2, robust z-score, replicate 3: 0.572
Under “robust z-score, replicate 1”, BAX shows 0.115

The listing continues.
no.	gene	robust z-score, replicate 1	robust z-score, replicate 2	robust z-score, replicate 3
52	RPTN	0.685	1.7	1.77
53	SOCS6	-1.59	-1.27	-1.65
54	LOC388173 (retired record)	0.678	0.981	1.76
55	DRAIC	0.0188	0.842	0.015
56	ROBO2	-0.885	-0.823	-0.674
57	OR51I1	1.59	2.49	1.6
58	ST6GAL2	1.05	1.22	1.96
59	YPEL5	-1.21	-0.328	0.00277
60	VAMP4	1.55	0.777	2.06
61	UCK1	1.15	0.616	0.235
62	LOC392586 (retired record)	-0.553	-0.0601	-0.447
63	AEN	-1.16	-0.883	-0.972
64	SLC23A1	0.993	0.628	0.962
65	ESD	-0.751	-1.1	-0.536
66	L2HGDH	-0.585	-0.938	-0.931
67	RNF170	-0.198	0.406	0.654
68	WDR75	-1.55	-1.74	-1.68
69	ANKK1	0.494	0.405	0.175
70	P2RY1	0.666	0.13	1.12
71	RIPK3	-0.914	-0.794	-0.984
72	LPAR4	0.0636	-0.384	-0.263
73	LOC391054 (retired record)	0.968	1.44	0.72
74	VWA2	0.986	-0.0113	0.341
75	ALDH1A1	-1.04	-0.62	-1.15
76	AMD1	2.02 (active)	0.298	1.91
77	SIRPB1	-1.39	-1.27	-1.28
78	TMED1	-0.0151	1.8	1.19
79	MCTP2	0.132	0.6	0.585
80	HNF1B	-0.546	-1.14	-1.27
81	LOC392993 (retired record)	-0.764	-0.348	-0.581
82	LOC389638 (retired record)	1.36	0.817	0.636
83	CLCA1	-1.02	-1.07	-0.925
84	USP28	1.97	1.01	2.28
85	PTP4A1	1.69	1.66	1.48
86	LOC388140 (retired record)	-1.46	-1.02	-1.35
87	MILR1	-1.29	-1.14	-1.31
